Results from US20190374627A1, “TARGET PEPTIDES FOR CANCER THERAPY AND DIAGNOSTICS” (priority 2016, published 2019).

Tests used:
leukemia = assay: Presence of the phosphopeptide in previously analyzed leukemia samples; parameters: key: The presence of phosphopeptides in previously analyzed samples including leukemia, colorectal cancer, melanoma, ovarian cancer, breast cancer, and esophageal cancer is indicated by ✓
colorectal cancer = assay: Presence of the phosphopeptide in previously analyzed colorectal cancer samples; parameters: key: The presence of phosphopeptides in previously analyzed samples including leukemia, colorectal cancer, melanoma, ovarian cancer, breast cancer, and esophageal cancer is indicated by ✓

Substance: 45 (RQASIELPSM; (4)...(4) The amino acid at this position is optionally phosphorylated; listed as Homo sapiens) [compound 45]
- Leukemia (leukemia): ✓
- Colorectal (colorectal cancer): ✓

Substance: 98 (KPPYRSHSL; (8)...(8) The amino acid at this position is optionally phosphorylated; listed as Homo sapiens) [compound 98]
- Leukemia (leukemia): ✓

Substance: 154 (RPRAATVVA; (6)...(6) The amino acid at this position is optionally phosphorylated; listed as Homo sapiens) [compound 154]
- Leukemia (leukemia): ✓
- Colorectal (colorectal cancer): ✓

Substance: 157 (RPRDTRRISL; (5)...(5) The amino acid at this position is optionally phosphorylated; listed as Homo sapiens) [compound 157]
- Leukemia (leukemia): ✓

Substance: 171 (RPRSLEVTI; (4)...(4) The amino acid at this position is optionally phosphorylated; listed as Homo sapiens) [compound 171]
- Leukemia (leukemia): ✓

Substance: 173 (RPRSMTVSA; (4)...(4) The amino acid at this position is optionally phosphorylated; listed as Homo sapiens) [compound 173]
- Leukemia (leukemia): ✓
- Colorectal (colorectal cancer): ✓

Substance: 175 (RPRSPAARL; (4)...(4) The amino acid at this position is optionally phosphorylated; listed as Homo sapiens) [compound 175]
- Leukemia (leukemia): ✓

Substance: 190 (RPSSPALYF; (4)...(4) The amino acid at this position is optionally phosphorylated; listed as Homo sapiens) [compound 190]
- Leukemia (leukemia): ✓

Substance: 207 (SPGLARKRSL; (9)...(9) The amino acid at this position is optionally phosphorylated; listed as Homo sapiens) [compound 207]
- Leukemia (leukemia): ✓

Substance: 220 (VPRSPKHAHSSSL; (4)...(4) The amino acid at this position is optionally phosphorylated; listed as Homo sapiens) [compound 220]
- Leukemia (leukemia): ✓
- Colorectal (colorectal cancer): ✓

Substance: 225 (FRRSPTKSSL; (4)...(4) The amino acid at this position is optionally phosphorylated; listed as Homo sapiens) [compound 225]
- Leukemia (leukemia): ✓
- Colorectal (colorectal cancer): ✓

Substance: 226 (FRRSPTKSSLD; (4)...(4) The amino acid at this position is optionally phosphorylated; listed as Homo sapiens) [compound 226]
- Leukemia (leukemia): ✓
- Colorectal (colorectal cancer): ✓

Substance: 227 (FRRSPTKSSLDY; (4)...(4) The amino acid at this position is optionally phosphorylated; listed as Homo sapiens) [compound 227]
- Leukemia (leukemia): ✓
- Colorectal (colorectal cancer): ✓

Substance: 301 (GIMSPLAKK; (4)...(4) The amino acid at this position is optionally phosphorylated; listed as Homo sapiens) [compound 301]
- Leukemia (leukemia): ✓
- Colorectal (colorectal cancer): ✓

Substance: 370 (YEGSPIKV; (4)...(4) The amino acid at this position is optionally phosphorylated; listed as Homo sapiens) [compound 370]
- Leukemia (leukemia): ✓

Substance: 392 (RAHSEPLAL; (4)...(4) The amino acid at this position is optionally phosphorylated; listed as Homo sapiens) [compound 392]
- Leukemia (leukemia): ✓

Substance: 411 (KLSGLSF; (5)...(5) The amino acid at this position is optionally phosphorylated; listed as Homo sapiens) [compound 411]
- Leukemia (leukemia): ✓
